Data reported in the supplement of paper PMC10849652.
This is one part of the list.

Protein sequences, listed by entry. Tags and fused reporters are not part of them. Lines headed by an entry give the natural chain unless they say otherwise; changes in a name come on top.
UniProt Q9UJ70, whole entry, looked up: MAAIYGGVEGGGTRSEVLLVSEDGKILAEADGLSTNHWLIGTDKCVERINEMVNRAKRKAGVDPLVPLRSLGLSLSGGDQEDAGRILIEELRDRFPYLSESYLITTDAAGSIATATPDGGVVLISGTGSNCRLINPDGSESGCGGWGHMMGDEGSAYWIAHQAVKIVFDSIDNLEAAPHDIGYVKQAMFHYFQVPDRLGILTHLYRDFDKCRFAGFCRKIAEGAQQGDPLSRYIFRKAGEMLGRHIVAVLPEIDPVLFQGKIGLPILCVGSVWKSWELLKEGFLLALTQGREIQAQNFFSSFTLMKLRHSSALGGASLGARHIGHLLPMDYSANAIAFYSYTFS
UniProt Q96HR8: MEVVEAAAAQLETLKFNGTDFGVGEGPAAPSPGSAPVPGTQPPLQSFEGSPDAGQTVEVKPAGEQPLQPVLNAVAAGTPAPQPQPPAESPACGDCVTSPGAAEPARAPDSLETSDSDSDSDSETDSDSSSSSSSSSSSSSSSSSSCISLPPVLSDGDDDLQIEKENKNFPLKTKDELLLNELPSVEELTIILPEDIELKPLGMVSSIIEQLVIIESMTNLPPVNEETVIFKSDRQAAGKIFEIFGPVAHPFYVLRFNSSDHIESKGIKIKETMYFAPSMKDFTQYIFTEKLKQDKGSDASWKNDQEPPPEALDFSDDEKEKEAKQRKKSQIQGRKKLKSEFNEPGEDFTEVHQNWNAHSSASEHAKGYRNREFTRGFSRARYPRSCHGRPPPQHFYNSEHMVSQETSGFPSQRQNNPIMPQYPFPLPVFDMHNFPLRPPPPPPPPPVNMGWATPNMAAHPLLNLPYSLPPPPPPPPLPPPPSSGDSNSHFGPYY
UniProt P55209: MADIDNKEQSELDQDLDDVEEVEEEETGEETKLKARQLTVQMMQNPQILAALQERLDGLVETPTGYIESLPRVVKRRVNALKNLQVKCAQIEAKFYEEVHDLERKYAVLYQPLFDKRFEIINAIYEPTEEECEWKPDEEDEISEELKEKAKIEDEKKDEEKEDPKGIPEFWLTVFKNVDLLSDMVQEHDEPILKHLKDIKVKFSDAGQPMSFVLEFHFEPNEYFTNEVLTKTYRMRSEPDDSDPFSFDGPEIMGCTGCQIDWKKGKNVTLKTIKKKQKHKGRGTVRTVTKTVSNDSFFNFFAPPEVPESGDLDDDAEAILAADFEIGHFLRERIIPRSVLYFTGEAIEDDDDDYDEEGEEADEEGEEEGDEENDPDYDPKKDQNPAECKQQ
UniProt Q14686, whole entry, looked up: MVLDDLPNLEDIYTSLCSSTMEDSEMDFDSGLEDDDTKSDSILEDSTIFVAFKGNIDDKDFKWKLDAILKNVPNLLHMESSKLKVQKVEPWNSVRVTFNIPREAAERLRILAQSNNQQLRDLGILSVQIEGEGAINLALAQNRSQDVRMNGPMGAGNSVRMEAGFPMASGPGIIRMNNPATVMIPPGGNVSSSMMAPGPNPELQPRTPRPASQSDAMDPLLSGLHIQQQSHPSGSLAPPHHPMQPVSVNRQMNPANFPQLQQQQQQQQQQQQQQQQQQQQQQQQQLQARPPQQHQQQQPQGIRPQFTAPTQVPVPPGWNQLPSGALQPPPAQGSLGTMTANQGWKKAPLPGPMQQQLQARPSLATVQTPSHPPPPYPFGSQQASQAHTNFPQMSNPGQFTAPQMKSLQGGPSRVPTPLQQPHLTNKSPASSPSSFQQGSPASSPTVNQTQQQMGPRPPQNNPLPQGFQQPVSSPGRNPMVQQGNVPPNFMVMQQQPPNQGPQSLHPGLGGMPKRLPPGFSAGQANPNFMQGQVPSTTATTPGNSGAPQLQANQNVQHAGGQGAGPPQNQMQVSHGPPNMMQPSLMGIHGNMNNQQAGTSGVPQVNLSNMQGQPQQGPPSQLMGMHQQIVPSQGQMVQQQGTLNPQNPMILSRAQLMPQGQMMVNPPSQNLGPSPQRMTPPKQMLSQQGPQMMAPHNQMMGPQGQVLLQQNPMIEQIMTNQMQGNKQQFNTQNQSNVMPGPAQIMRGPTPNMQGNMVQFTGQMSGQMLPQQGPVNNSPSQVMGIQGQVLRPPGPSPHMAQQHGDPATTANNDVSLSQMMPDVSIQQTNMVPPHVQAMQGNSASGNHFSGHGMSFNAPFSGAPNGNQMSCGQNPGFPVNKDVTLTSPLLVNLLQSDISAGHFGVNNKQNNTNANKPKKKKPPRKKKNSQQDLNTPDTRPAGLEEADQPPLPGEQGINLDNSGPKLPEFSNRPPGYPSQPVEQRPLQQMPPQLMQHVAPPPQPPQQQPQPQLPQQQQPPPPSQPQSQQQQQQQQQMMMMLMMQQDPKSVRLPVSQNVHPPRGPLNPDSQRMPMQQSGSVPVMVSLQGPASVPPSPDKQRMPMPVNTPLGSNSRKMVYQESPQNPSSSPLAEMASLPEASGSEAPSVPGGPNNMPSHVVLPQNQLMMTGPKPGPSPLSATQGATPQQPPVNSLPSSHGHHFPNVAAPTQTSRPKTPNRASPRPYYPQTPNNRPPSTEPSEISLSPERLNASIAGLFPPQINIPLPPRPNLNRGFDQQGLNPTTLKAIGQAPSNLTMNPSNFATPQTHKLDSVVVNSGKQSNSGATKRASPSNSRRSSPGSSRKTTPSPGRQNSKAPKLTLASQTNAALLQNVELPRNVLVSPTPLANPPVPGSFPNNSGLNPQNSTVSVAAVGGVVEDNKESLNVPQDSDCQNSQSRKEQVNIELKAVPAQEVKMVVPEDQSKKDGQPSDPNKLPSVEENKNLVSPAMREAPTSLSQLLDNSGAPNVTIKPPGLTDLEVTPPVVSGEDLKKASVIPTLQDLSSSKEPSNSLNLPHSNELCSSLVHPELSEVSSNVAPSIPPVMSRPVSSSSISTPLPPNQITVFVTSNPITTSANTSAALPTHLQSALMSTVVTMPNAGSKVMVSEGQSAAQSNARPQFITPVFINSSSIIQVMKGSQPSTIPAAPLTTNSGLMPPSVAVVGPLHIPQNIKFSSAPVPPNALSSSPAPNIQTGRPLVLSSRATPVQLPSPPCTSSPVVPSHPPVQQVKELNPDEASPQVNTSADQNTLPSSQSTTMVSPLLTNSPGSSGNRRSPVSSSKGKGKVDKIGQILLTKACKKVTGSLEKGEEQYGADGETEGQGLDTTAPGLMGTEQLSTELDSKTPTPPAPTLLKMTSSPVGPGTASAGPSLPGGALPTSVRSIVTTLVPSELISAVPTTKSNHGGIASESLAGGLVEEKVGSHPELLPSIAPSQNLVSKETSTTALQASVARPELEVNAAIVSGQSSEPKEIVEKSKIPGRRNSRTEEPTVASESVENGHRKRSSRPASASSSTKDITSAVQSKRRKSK
UniProt Q6IA69: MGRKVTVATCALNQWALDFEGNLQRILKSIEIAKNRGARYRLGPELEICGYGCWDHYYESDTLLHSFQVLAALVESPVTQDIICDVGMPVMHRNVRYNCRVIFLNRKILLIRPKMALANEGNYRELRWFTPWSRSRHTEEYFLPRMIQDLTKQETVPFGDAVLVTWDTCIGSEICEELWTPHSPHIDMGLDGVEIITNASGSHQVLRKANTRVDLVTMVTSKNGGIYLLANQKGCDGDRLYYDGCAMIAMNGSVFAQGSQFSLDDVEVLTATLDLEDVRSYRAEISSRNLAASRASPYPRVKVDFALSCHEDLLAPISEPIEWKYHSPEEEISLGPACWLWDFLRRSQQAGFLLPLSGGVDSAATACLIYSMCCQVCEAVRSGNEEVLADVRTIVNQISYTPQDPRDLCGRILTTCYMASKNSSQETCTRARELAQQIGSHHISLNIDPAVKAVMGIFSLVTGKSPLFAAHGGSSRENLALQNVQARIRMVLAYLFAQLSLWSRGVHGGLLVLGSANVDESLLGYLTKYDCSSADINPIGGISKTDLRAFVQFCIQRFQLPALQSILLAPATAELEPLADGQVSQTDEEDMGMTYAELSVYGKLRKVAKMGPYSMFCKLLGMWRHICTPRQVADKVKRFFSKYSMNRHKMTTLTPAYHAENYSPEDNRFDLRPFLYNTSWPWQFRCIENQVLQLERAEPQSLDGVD
UniProt Q9NR45: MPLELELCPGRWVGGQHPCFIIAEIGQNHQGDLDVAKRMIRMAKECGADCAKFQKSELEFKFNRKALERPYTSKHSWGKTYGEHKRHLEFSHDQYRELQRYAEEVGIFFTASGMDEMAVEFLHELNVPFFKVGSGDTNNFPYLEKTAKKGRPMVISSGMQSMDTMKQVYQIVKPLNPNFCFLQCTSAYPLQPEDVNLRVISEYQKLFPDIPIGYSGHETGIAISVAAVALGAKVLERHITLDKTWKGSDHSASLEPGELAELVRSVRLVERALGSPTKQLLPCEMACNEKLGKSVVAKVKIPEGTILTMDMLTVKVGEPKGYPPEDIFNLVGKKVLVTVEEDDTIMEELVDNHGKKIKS
UniProt Q99747: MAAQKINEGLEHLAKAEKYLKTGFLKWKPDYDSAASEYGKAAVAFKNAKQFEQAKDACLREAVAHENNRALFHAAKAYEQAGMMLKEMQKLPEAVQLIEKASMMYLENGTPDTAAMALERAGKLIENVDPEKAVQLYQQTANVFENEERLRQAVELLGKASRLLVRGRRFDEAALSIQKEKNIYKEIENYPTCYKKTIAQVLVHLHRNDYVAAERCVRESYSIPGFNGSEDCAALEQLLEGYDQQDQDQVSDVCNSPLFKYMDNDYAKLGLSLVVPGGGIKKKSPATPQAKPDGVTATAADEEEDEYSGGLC
UniProt Q15596: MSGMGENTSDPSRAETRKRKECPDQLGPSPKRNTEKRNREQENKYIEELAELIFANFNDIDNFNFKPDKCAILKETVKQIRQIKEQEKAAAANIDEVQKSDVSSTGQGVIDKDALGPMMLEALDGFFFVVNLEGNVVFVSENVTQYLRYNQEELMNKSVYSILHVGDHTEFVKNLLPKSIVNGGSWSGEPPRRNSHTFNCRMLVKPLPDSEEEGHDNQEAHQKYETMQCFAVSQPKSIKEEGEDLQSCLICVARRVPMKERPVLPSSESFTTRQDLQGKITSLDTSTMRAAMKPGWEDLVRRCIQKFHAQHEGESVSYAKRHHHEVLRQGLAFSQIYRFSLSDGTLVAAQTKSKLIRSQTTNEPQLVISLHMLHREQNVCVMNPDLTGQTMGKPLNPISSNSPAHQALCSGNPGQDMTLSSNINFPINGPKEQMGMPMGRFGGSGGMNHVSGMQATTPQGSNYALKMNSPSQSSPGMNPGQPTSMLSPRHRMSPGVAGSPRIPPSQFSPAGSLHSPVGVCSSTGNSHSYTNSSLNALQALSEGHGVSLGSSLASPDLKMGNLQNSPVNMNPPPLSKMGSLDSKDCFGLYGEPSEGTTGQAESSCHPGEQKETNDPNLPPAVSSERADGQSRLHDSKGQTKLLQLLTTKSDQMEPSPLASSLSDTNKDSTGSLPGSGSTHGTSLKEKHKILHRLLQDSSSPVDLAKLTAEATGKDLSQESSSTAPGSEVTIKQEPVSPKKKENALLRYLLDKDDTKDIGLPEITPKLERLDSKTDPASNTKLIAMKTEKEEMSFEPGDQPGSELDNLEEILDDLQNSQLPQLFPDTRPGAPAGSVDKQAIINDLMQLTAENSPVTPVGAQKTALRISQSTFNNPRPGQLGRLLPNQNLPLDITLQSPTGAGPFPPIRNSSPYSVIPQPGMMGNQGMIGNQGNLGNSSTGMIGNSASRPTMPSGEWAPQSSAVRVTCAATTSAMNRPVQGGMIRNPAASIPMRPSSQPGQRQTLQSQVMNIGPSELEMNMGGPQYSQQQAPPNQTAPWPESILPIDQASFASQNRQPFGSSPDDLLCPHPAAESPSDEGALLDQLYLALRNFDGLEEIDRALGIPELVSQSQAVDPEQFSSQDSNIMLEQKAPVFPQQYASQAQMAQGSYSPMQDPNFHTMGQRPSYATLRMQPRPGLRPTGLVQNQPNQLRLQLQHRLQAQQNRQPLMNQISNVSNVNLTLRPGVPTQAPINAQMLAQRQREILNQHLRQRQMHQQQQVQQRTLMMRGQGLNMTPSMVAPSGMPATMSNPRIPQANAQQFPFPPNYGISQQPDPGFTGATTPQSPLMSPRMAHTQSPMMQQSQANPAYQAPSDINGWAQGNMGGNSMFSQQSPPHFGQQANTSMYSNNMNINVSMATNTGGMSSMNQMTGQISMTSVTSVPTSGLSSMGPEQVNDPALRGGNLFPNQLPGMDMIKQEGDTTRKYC

Tests used:
Experiment in all cases: log2 fold change, soluble protein after heating vs DMSO (PISA); higher = thermal stabilisation; K562 lysate, 10 uM; active = over 0.2 and 3.5 SD of the protein, either way, in both replicates (recomputed)
lapatinib = compound: CS(=O)(=O)CCNCc1ccc(-c2ccc3ncnc(Nc4ccc(OCc5cccc(F)c5)c(Cl)c4)c3c2)o1 [lapatinib]
Procedure, shortened: (§1)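 K562 pellets were dounce-homogenised in PBS pH 7.4 containing 1 mM MgCl2, and the crude extract, at 1 mg/mL protein, was exposed to 10 μM compound for 30 min. Aliquots were heated for 3 min across 48°C-58°C, pooled, brought to 0.5% NP-40 at 4°C and spun at 21,000xg for 90 min, with the supernatant taken as soluble protein. TMTpro 16plex LC-MS/MS with equalised channel sums quantified that protein. Values are log-two fold changes in thermal stability relative to solvent controls, taken from duplicates.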

pictilisib = compound: CS(=O)(=O)N1CCN(Cc2cc3nc(-c4cccc5[nH]ncc45)nc(N4CCOCC4)c3s2)CC1 [pictilisib]
Procedure, shortened: as §1

crizotinib = compound: C[C@@H](Oc1cc(-c2cnn(C3CCNCC3)c2)cnc1N)c1c(Cl)ccc(F)c1Cl [crizotinib]
Procedure, shortened: as §1

[1] = compound: C[C@H](C1=CC=C(C=C1)C(=O)NC2=C3C=CNC3=NC=C2)N
Procedure, shortened: as §1

duvelisib = compound: C[C@H](Nc1ncnc2nc[nH]c12)c1cc2cccc(Cl)c2c(=O)n1-c1ccccc1 [duvelisib]
Procedure, shortened: as §1

gandotinib = compound: Cc1cc(Nc2cc(CN3CCOCC3)c3nc(C)c(Cc4ccc(Cl)cc4F)n3n2)n[nH]1 [gandotinib]
Procedure, shortened: as §1

tozasertib = compound: Cc1cc(Nc2cc(N3CCN(C)CC3)nc(Sc3ccc(NC(=O)C4CC4)cc3)n2)n[nH]1 [tozasertib]
Procedure, shortened: as §1

doramapimod = compound: Cc1ccc(-n2nc(C(C)(C)C)cc2NC(=O)Nc2ccc(OCCN3CCOCC3)c3ccccc23)cc1 [doramapimod]
Procedure, shortened: as §1

bafetinib = compound: Cc1ccc(NC(=O)c2ccc(CN3CC[C@H](N(C)C)C3)c(C(F)(F)F)c2)cc1Nc1nccc(-c2cncnc2)n1 [bafetinib]
Procedure, shortened: as §1

[2] = compound: Cc1cccc(CC(=O)N2CCc3c2ccc(-c2cn(C)c4ncnc(N)c24)c3F)n1
Procedure, shortened: as §1

nilotinib = compound: Cc1cn(-c2cc(NC(=O)c3ccc(C)c(Nc4nccc(-c5cccnc5)n4)c3)cc(C(F)(F)F)c2)cn1 [nilotinib]
Procedure, shortened: as §1

[3] = compound: Cc1nc(Nc2n[nH]c3c2CN(C(=O)N[C@H](CN(C)C)c2ccccc2)C3(C)C)c2sccc2n1
Procedure, shortened: as §1

dasatinib = compound: Cc1nc(Nc2ncc(C(=O)Nc3c(C)cccc3Cl)s2)cc(N2CCN(CCO)CC2)n1 [dasatinib]
Procedure, shortened: as §1

[4] = compound: Cc1ncc(-c2ccnc(Nc3ccc(S(C)(=O)=O)cc3)n2)n1C(C)C
Procedure, shortened: as §1

[5] = compound: Cn1cc(-c2ccc3c(c2)CCN3C(=O)Cc2cccc(C(F)(F)F)c2)c2c(N)ncnc21
Procedure, shortened: as §1

quisinostat = compound: Cn1cc(CNCC2CCN(c3ncc(C(=O)NO)cn3)CC2)c2ccccc21 [quisinostat]
Procedure, shortened: as §1

tipifarnib = compound: Cn1cncc1[C@@](N)(c1ccc(Cl)cc1)c1ccc2c(c1)c(-c1cccc(Cl)c1)cc(=O)n2C [tipifarnib]
Procedure, shortened: as §1

[6] = compound: NC(=O)Nc1cc(-c2cccc(F)c2)sc1C(=O)N[C@H]1CCCNC1
Procedure, shortened: as §1

[7] = compound: NC(=O)c1cnc(N[C@@H]2CCCC[C@@H]2N)nc1Nc1cccc(-n2nccn2)c1
Procedure, shortened: as §1

[8] = compound: NC1(c2ccc(-c3nc4ccn5c(=O)[nH]nc5c4cc3-c3ccccc3)cc2)CCC1
Procedure, shortened: as §1

Measured: log2 fold change

NAA40 (UniProt Q86UY6)
inactive: lapatinib -0.014 | pictilisib 0.063 | crizotinib -0.04 | [1] -0.12 | duvelisib 0.009 | gandotinib -0.009 | tozasertib 0.112 | doramapimod 0.029 | bafetinib -0.087 | [2] 0.157 | nilotinib -0.011 | [3] 0.006 | dasatinib 0.01 | [4] 0.013 | [5] 0.085 | quisinostat -0.038 | tipifarnib 0.049 | [6] 0.094 | [7] -0.008 | [8] 0.003

MYCBP2 (UniProt O75592)
inactive: lapatinib -0.042 | pictilisib -0.026 | crizotinib -0.07 | [1] -0.028 | duvelisib 0.023 | gandotinib 0.054 | tozasertib 0.023 | doramapimod 0.016 | bafetinib -0.004 | [2] 0.114 | nilotinib 0.028 | [3] -0.013 | dasatinib -0.038 | [4] -0.013 | [5] 0.015 | quisinostat -0.116 | tipifarnib -0.008 | [6] 0.019 | [7] 0.012 | [8] -0.013

NCALD (UniProt P61601)
inactive: lapatinib -0.035 | pictilisib -0.056 | crizotinib 0.005 | [1] -0.019 | duvelisib 0.022 | gandotinib 0.044 | tozasertib 0.029 | doramapimod 0.061 | bafetinib -0.01 | [2] 0.002 | nilotinib 0.052 | [3] -0.102 | dasatinib 0.002 | [4] 0.007 | [5] 0.014 | quisinostat 0.061 | tipifarnib -0.083 | [6] -0.008 | [7] -0.005 | [8] 0.057

NCAPG2 (UniProt Q86XI2)
inactive: lapatinib -0.062 | pictilisib -0.006 | crizotinib -0.048 | [1] -0.108 | duvelisib -0.052 | gandotinib -0.011 | tozasertib 0.023 | doramapimod 0.062 | bafetinib -0.074 | [2] 0.143 | nilotinib -0.002 | [3] -0.035 | dasatinib -0.078 | [4] -0.024 | [5] -0.015 | quisinostat -0.092 | tipifarnib 0.003 | [6] 0.061 | [7] 0.045 | [8] -0.031

NAGK isoform 2 (UniProt Q9UJ70)
inactive: lapatinib -0.01 | pictilisib 0.001 | crizotinib 0.007 | [1] -0.042 | duvelisib -0.011 | gandotinib 0.05 | tozasertib -0.025 | doramapimod 0.044 | bafetinib 0.048 | [2] 0.017 | nilotinib -0.004 | [3] -0.031 | dasatinib 0.035 | [4] -0.03 | [5] -0.013 | quisinostat 0.054 | tipifarnib 0.001 | [6] -0.029 | [7] 0.005 | [8] 0.016

Quoted from the entries so far (2 entries):
NCAPG2 (UniProt Q86XI2)
inactive: lapatinib -0.062 | pictilisib -0.006 | crizotinib -0.048 | [1] -0.108 | duvelisib -0.052 | gandotinib -0.011 | tozasertib 0.023 | doramapimod 0.062 | bafetinib -0.074 | [2] 0.143 | nilotinib -0.002 | [3] -0.035 | dasatinib -0.078 | [4] -0.024 | [5] -0.015 | quisinostat -0.092 | tipifarnib 0.003 | [6] 0.061 | [7] 0.045 | [8] -0.031

NAGK isoform 2 (UniProt Q9UJ70)
inactive: lapatinib -0.01 | pictilisib 0.001 | crizotinib 0.007 | [1] -0.042 | duvelisib -0.011 | gandotinib 0.05 | tozasertib -0.025 | doramapimod 0.044 | bafetinib 0.048 | [2] 0.017 | nilotinib -0.004 | [3] -0.031 | dasatinib 0.035 | [4] -0.03 | [5] -0.013 | quisinostat 0.054 | tipifarnib 0.001 | [6] -0.029 | [7] 0.005 | [8] 0.016

Following part:

NAF1 (UniProt Q96HR8)
inactive: lapatinib -0.066 | pictilisib 0.073 | crizotinib 0.068 | [1] 0.028 | duvelisib -0.003 | gandotinib 0.026 | tozasertib -0.036 | doramapimod -0.002 | bafetinib -0.003 | [2] -0.019 | nilotinib -0.048 | [3] 0.106 | dasatinib -0.011 | [4] 0.016 | [5] 0.032 | quisinostat 0.023 | tipifarnib -0.036 | [6] 0.027 | [7] 0.036 | [8] -0.006

NAP1L1 isoform 3 (UniProt P55209)
inactive: lapatinib 0.052 | pictilisib -0.007 | crizotinib -0.158 | [1] -0.53 | duvelisib 0.073 | gandotinib 0.198 | tozasertib 0.061 | doramapimod 0.094 | bafetinib -0.244 | [2] 0.147 | nilotinib -0.016 | [3] -0.005 | dasatinib -0.026 | [4] -0.053 | [5] -0.221 | quisinostat -0.196 | tipifarnib -0.041 | [6] 0.053 | [7] 0.021 | [8] 0.115

NCOA6 (UniProt Q14686)
inactive: lapatinib 0.014 | pictilisib -0.025 | crizotinib 0.001 | [1] -0.056 | duvelisib -0.048 | gandotinib 0.016 | tozasertib -0.039 | doramapimod -0.062 | bafetinib -0.037 | [2] -0.003 | nilotinib 0.023 | [3] -0.067 | dasatinib 0.027 | [4] 0 | [5] 0.034 | quisinostat 0.003 | tipifarnib -0.009 | [6] 0.015 | [7] -0.007 | [8] -0.007

NADSYN1 (UniProt Q6IA69)
inactive: lapatinib -0.018 | pictilisib 0.005 | crizotinib 0.042 | [1] 0.036 | duvelisib 0.017 | gandotinib -0.023 | tozasertib -0.025 | doramapimod 0 | bafetinib -0.021 | [2] -0.04 | nilotinib -0.054 | [3] 0.101 | dasatinib 0.017 | [4] 0.036 | [5] -0.011 | quisinostat 0.027 | tipifarnib -0.005 | [6] -0.038 | [7] -0.009 | [8] -0.006

NANS (UniProt Q9NR45)
inactive: lapatinib -0.004 | pictilisib 0.008 | crizotinib 0.044 | [1] -0.051 | duvelisib 0.002 | gandotinib 0.002 | tozasertib 0.01 | doramapimod -0.017 | bafetinib 0.01 | [2] 0.003 | nilotinib 0.006 | [3] -0.007 | dasatinib 0.001 | [4] -0.013 | [5] -0.009 | quisinostat 0.07 | tipifarnib 0.024 | [6] 0.01 | [7] 0.001 | [8] 0.028

NCOR2 (UniProt C9J0Q5)
inactive: lapatinib 0.063 | pictilisib -0.028 | crizotinib 0.116 | [1] 0.018 | duvelisib -0.014 | gandotinib -0.055 | tozasertib 0.011 | doramapimod -0.052 | bafetinib 0.079 | [2] -0.07 | nilotinib 0.09 | [3] -0.034 | dasatinib -0.082 | [4] 0.043 | [5] -0.015 | quisinostat -0.034 | tipifarnib -0.045 | [6] 0.047 | [7] 0.025 | [8] 0.022

NAPG (UniProt Q99747)
inactive: lapatinib -0.004 | pictilisib 0.001 | crizotinib 0.016 | [1] 0.024 | duvelisib 0.021 | gandotinib -0.009 | tozasertib 0.009 | doramapimod -0.012 | bafetinib 0.039 | [2] -0.049 | nilotinib 0.064 | [3] -0.009 | dasatinib -0.01 | [4] -0.001 | [5] 0.001 | quisinostat 0.035 | tipifarnib 0.019 | [6] -0.012 | [7] 0.001 | [8] 0.027

N4BP1 (UniProt O75113)
inactive: lapatinib -0.022 | pictilisib -0.053 | crizotinib -0.037 | [1] 0.029 | duvelisib -0.008 | gandotinib -0.064 | tozasertib 0.004 | doramapimod -0.009 | bafetinib 0.042 | [2] -0.04 | nilotinib -0.019 | [3] 0 | dasatinib -0.047 | [4] 0.002 | [5] -0.004 | quisinostat -0.048 | tipifarnib -0.015 | [6] 0.044 | [7] 0.042 | [8] 0.019

MYH9 (UniProt P35579)
inactive: lapatinib -0.036 | pictilisib -0.001 | crizotinib 0.016 | [1] 0.011 | duvelisib 0.017 | gandotinib -0.004 | tozasertib -0.004 | doramapimod -0.01 | bafetinib -0.001 | [2] -0.001 | nilotinib -0.012 | [3] -0.004 | dasatinib 0.005 | [4] 0.018 | [5] -0.006 | quisinostat 0.015 | tipifarnib 0.004 | [6] -0.007 | [7] 0.012 | [8] -0.019

NCAPG (UniProt Q9BPX3)
inactive: lapatinib -0.029 | pictilisib 0 | crizotinib -0.074 | [1] -0.028 | duvelisib -0.007 | gandotinib -0.094 | tozasertib -0.011 | doramapimod 0.026 | bafetinib -0.035 | [2] 0.011 | nilotinib 0.01 | [3] 0.002 | dasatinib -0.062 | [4] 0 | [5] 0.007 | quisinostat -0.08 | tipifarnib 0 | [6] 0.012 | [7] -0.004 | [8] -0.019

NCOA2 (UniProt Q15596)
inactive: lapatinib -0.113 | pictilisib -0.174 | crizotinib -0.062 | [1] -0.028 | duvelisib 0.05 | gandotinib 0 | tozasertib 0.062 | doramapimod -0.029 | bafetinib -0.007 | [2] -0.038 | nilotinib -0.05 | [3] -0.148 | dasatinib -0.016 | [4] -0.084 | [5] -0.076 | quisinostat -0.023 | tipifarnib 0.111 | [6] 0.014 | [7] 0.024 | [8] 0.009
